In assay [1] the target is FLAG-tagged PTK2B (UniProt Q14289). Briefly: co-IP; HCT116 cells transiently transfected with FLAG-tagged PTK2B; precipitated with anti-FLAG antibody; blots probed for PTK2B and STAT3.
Assay [2] addresses Protein tyrosine kinase 2 beta (PTK2B) (human (endogenous in HCT15 and HCT116)) (UniProt Q14289). Briefly: co-IP; endogenous PTK2B and STAT3 in HCT15 and HCT116 cells; blots probed for PTK2B and STAT3; the precipitating antibody is not told.

Chains of the proteins cited; added tags and fusions are not shown.
UniProt Q14289: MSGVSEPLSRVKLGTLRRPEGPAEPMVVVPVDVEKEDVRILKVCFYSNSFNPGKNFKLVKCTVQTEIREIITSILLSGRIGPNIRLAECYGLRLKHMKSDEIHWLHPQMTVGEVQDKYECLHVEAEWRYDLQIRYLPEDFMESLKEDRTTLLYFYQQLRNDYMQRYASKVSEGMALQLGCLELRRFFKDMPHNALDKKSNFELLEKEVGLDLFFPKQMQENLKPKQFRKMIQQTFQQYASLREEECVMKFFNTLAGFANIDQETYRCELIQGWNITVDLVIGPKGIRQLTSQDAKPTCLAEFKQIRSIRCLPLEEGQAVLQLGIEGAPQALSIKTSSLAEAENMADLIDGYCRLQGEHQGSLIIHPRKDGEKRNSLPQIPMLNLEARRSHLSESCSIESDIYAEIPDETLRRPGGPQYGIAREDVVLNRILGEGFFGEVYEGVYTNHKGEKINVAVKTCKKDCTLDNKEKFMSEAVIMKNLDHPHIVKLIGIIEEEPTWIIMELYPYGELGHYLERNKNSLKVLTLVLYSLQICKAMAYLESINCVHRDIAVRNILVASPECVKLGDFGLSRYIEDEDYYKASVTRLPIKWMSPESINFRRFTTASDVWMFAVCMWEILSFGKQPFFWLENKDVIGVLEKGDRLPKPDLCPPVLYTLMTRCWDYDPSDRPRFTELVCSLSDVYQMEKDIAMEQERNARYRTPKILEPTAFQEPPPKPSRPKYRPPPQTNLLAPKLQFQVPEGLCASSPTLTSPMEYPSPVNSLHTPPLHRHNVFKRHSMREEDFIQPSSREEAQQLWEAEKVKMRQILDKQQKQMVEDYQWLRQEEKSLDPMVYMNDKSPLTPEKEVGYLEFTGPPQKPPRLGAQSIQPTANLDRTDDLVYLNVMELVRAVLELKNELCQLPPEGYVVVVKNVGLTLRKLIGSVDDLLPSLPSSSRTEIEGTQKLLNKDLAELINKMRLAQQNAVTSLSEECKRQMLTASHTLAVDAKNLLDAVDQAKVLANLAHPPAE
UniProt P40763: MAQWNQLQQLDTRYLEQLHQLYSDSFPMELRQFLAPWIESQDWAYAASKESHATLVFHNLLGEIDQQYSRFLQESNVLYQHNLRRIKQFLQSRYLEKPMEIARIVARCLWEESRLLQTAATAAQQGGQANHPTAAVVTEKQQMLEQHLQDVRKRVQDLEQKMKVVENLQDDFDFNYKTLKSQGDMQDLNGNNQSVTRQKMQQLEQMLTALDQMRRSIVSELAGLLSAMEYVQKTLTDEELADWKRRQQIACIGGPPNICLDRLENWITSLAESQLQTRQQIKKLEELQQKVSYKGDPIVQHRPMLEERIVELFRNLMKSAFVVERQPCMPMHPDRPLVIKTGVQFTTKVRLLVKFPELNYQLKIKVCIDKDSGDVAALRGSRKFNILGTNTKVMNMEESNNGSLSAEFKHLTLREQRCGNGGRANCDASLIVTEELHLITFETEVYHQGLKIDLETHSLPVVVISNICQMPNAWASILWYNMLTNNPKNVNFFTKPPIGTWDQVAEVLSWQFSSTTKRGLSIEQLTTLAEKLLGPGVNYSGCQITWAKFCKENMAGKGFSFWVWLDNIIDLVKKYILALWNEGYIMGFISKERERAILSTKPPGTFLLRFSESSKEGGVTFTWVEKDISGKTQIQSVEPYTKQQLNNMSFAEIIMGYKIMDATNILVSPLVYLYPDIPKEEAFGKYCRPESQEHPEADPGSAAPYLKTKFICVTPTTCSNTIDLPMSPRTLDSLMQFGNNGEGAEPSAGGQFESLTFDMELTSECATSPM

These are yes or no findings as the source states them, for the method shown. In cells and extracts the contact can be indirect. Some binding calls cover weakened binding; strength is not graded here.

For the substance STAT3 (from UniProt P40763 1-770), the binding entry in assay [1] and in assay [2] was “binds” in each case.

These data come from paper PMC12575923.
